Results are given in words; binding and its absence hold for the method and conditions named. Binding seen in cells or lysates may run through a third protein. Some results given as binding are weak or reduced against the parent protein; the word gives no strength. Tags and fused reporters may be left off the sequences shown.

In the assay the target is T1, Flag-RBM6 (UniProt P78332).
T1 sequence: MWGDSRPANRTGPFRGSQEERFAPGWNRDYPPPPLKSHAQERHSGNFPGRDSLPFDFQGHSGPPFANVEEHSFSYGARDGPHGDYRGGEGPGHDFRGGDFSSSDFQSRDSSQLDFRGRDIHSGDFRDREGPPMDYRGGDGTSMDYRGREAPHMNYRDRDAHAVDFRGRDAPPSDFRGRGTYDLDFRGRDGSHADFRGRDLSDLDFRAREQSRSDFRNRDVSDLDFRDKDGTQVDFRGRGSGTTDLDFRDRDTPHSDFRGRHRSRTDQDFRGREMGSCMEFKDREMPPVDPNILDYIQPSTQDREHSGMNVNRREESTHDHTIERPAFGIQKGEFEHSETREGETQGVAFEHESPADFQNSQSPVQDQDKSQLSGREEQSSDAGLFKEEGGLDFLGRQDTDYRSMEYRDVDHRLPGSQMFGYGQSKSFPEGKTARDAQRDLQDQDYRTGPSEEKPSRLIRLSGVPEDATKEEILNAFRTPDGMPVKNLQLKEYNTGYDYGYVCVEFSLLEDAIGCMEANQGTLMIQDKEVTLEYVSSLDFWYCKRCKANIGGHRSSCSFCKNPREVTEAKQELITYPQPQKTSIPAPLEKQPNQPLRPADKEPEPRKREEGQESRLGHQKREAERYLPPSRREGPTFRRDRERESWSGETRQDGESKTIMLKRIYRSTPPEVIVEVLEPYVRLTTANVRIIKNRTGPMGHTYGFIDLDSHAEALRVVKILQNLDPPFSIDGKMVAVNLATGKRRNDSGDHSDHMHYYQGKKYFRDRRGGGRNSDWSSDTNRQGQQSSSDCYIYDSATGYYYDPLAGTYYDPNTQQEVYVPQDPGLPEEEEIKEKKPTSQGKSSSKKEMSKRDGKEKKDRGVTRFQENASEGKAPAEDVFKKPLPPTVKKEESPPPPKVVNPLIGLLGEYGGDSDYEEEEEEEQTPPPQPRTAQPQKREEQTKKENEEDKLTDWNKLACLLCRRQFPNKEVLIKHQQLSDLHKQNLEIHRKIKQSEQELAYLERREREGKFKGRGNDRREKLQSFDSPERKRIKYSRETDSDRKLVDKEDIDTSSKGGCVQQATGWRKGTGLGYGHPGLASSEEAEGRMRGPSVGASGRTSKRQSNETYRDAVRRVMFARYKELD
Kind of assay: co-IP; HCT116 cells co-transfected with Flag-RBM6 and Myc-RNPS1, harvested 36 h later, lysed in NP-40 containing buffer with protease inhibitors; 1.5 mg proteins immunoprecipitated with 1.5 ug flag antibody; western blot.

B1: Myc-RNPS1 (protein, UniProt Q15287 1-305)
chain: MDLSGVKKKSLLGVKENNKKSSTRAPSPTKRKDRSDEKSKDRSKDKGATKESSEKDRGRDKTRKRRSASSGSSSTRSRSSSTSSSGSSTSTGSSSGSSSSSASSRSGSSSTSRSSSSSSSSGSPSPSRRRHDNRRRSRSKSKPPKRDEKERKRRSPSPKPTKVHIGRLTRNVTKDHIMEIFSTYGKIKMIDMPVERMHPHLSKGYAYVEFENPDEAEKALKHMDGGQIDGQEITATAVLAPWPRPPPRRFSPPRRMLPPPPMWRRSPPRMRRRSRSPRRRSPVRRRSRSPGRRRHRSRSSSNSSR
Consider B1, for which the binding entry was “binds”.

Source of the values: paper PMC8599755.
